# The supplement of paper PMC8728848
# This is one part of the list.
# B1: truncCC1G-10077 (Coprinopsis cinerea) (protein)
# chain: MHHHHHHHHPLPSPGPGWVLIQNGGTGKFLCSTPSGDIGTADGPETVYDYSVQWRFIQREYTGVYHVVNRATGAYLRQIGTSMPSIGLAEENDDELKDWWMLETYDNSEIGLASIISRWTGNVLDHYGGVSVQALDNNTENSYRSWAIIPARDWLTSFSLVNGQGGLCLAAQYAREETRLSTTANVNDFHAQWVFRKPSGSSGYTIQNKYNNHYVGGTSARWELVVCCNKYFGIRNTSTQKYLAIEDGQVTFQDQDMTDRKQCWELCSGRATDTSGNDYDLIYMDDDLLEVMIPWVGDKQGDLKHYIEKRATKKPPKDKGGWQLPAAGLIKKPKFNDIRQLLQELIEQWEWDVVNEEREQIQTLVSIDEAEARRLLGRRPHPDIVAAYQRSRSSTLFRIDRQGYFNIAGDRYVNIQGQYGDDSYFHIALPVGVRFGREQIRRFLRDSLDRSTSVTITPTTCKPPSGGPDYNRDPDSDGDNSWIKWTIAVVGTSAIKHSEL
# What was measured:
# Assay in all cases: glycan array binding signal (z-score within array); higher = stronger binding
# Settings in all cases: glycan notation: IUPAC condensed, linker removed
# [1] = target: GlcNAc(b1-2)Gal(b1-3)GalNAc
# Summary of the method: (§1)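 The binding signal is a Z-score computed within each array. Data were drawn from 3228 arrays in the Consortium for Functional Glycomics database, restricted to those with a known protein sequence. Scores were averaged over arrays of the same protein sequence at different concentrations or buffers, and over linkers, and negative values can be taken as non-binding.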
# [2] = target: GlcNAc(b1-2)Man(a1-3)[GlcNAc(b1-2)Man(a1-6)]Man(b1-4)GlcNAc(b1-4)GlcNAc
# Summary of the method: as §1
# [3] = target: GlcNAc(b1-2)Man(a1-3)[GlcNAc(b1-2)Man(a1-6)]Man(b1-4)GlcNAc(b1-4)[Fuc(a1-6)]GlcNAc
# Summary of the method: as §1
# [4] = target: GlcNAc(b1-2)Man(a1-3)[GlcNAc(b1-4)][GlcNAc(b1-2)Man(a1-6)]Man(b1-4)GlcNAc(b1-4)GlcNAc
# Summary of the method: as §1
# [5] = target: GlcNAc(b1-2)Man(a1-3)[GlcNAc(b1-4)][GlcNAc(b1-2)Man(a1-6)]Man(b1-4)GlcNAc(b1-4)[Fuc(a1-6)]GlcNAc
# Summary of the method: as §1
# [6] = target: GlcNAc(b1-2)[GlcNAc(b1-4)]Man(a1-3)[GlcNAc(b1-2)Man(a1-6)]Man(b1-4)GlcNAc(b1-4)GlcNAc
# Summary of the method: as §1
# [7] = target: GlcNAc(b1-2)[GlcNAc(b1-4)]Man(a1-3)[GlcNAc(b1-4)][GlcNAc(b1-2)Man(a1-6)]Man(b1-4)GlcNAc(b1-4)GlcNAc
# Summary of the method: as §1
# [8] = target: GlcNAc(b1-2)[GlcNAc(b1-4)]Man(a1-3)[GlcNAc(b1-4)][GlcNAc(b1-2)[GlcNAc(b1-6)]Man(a1-6)]Man(b1-4)GlcNAc(b1-4)GlcNAc
# Summary of the method: as §1
# [9] = target: GlcNAc(b1-2)[GlcNAc(b1-4)]Man(a1-3)[GlcNAc(b1-4)][GlcNAc(b1-2)[GlcNAc(b1-6)]Man(a1-6)]Man(b1-4)GlcNAc(b1-4)[Fuc(a1-6)]GlcNAc
# Summary of the method: as §1
# [10] = target: GlcNAc(b1-2)[GlcNAc(b1-6)]Man(a1-6)[GlcNAc(b1-2)Man(a1-3)]Man(b1-4)GlcNAc(b1-4)GlcNAc
# Summary of the method: as §1
# [11] = target: GlcNAc(b1-2)[GlcNAc(b1-6)]Man(a1-6)[GlcNAc(b1-2)Man(a1-3)]Man(b1-4)GlcNAc(b1-4)[Fuc(a1-6)]GlcNAc
# Summary of the method: as §1
# [12] = target: GlcNAc(b1-2)[GlcNAc(b1-6)]Man(a1-6)[GlcNAc(b1-4)][GlcNAc(b1-2)Man(a1-3)]Man(b1-4)GlcNAc(b1-4)GlcNAc
# Summary of the method: as §1
# GlcNAc(b1-3)Fuc = target: GlcNAc(b1-3)Fuc
# Summary of the method: as §1
# GlcNAc(b1-3)Gal = target: GlcNAc(b1-3)Gal
# Summary of the method: as §1
# [13] = target: GlcNAc(b1-3)Gal(b1-3)GalNAc
# Summary of the method: as §1
# GlcNAc(b1-3)Gal(b1-4)Glc = target: GlcNAc(b1-3)Gal(b1-4)Glc
# Summary of the method: as §1
# [14] = target: GlcNAc(b1-3)Gal(b1-4)GlcNAc
# Summary of the method: as §1
# [15] = target: GlcNAc(b1-3)Gal(b1-4)GlcNAc(b1-2)Man(a1-3)[GlcNAc(b1-3)Gal(b1-4)GlcNAc(b1-2)Man(a1-6)]Man(b1-4)GlcNAc(b1-4)GlcNAc
# Summary of the method: as §1
# [16] = target: GlcNAc(b1-3)Gal(b1-4)GlcNAc(b1-2)Man(a1-3)[GlcNAc(b1-3)Gal(b1-4)GlcNAc(b1-2)Man(a1-6)]Man(b1-4)GlcNAc(b1-4)[Fuc(a1-6)]GlcNAc
# Summary of the method: as §1
# [17] = target: GlcNAc(b1-3)Gal(b1-4)GlcNAc(b1-2)[GlcNAc(b1-3)Gal(b1-4)GlcNAc(b1-6)]Man(a1-6)[GlcNAc(b1-3)Gal(b1-4)GlcNAc(b1-2)Man(a1-3)]Man(b1-4)GlcNAc(b1-4)GlcNAc
# Summary of the method: as §1
# [18] = target: GlcNAc(b1-3)Gal(b1-4)GlcNAc(b1-3)Gal(b1-4)GlcNAc
# Summary of the method: as §1
# [19] = target: GlcNAc(b1-3)Gal(b1-4)GlcNAc(b1-3)Gal(b1-4)GlcNAc(b1-2)Man(a1-3)[GlcNAc(b1-3)Gal(b1-4)GlcNAc(b1-3)Gal(b1-4)GlcNAc(b1-2)Man(a1-6)]Man(b1-4)GlcNAc(b1-4)GlcNAc
# Summary of the method: as §1
binder,measurement,setting,value
B1,glycan array binding signal (z-score),[1],-0.975
same,glycan array binding signal (z-score),[2],-0.459
same,glycan array binding signal (z-score),[3],1.56
same,glycan array binding signal (z-score),[4],-0.47
same,glycan array binding signal (z-score),[5],-0.611
same,glycan array binding signal (z-score),[6],-0.648
same,glycan array binding signal (z-score),[7],-0.641
same,glycan array binding signal (z-score),[8],-0.003
same,glycan array binding signal (z-score),[9],-0.938
same,glycan array binding signal (z-score),[10],-0.579
same,glycan array binding signal (z-score),[11],1.97
same,glycan array binding signal (z-score),[12],-0.761
same,glycan array binding signal (z-score),GlcNAc(b1-3)Fuc,-1.4
same,glycan array binding signal (z-score),GlcNAc(b1-3)Gal,-1
same,glycan array binding signal (z-score),[13],-0.15
same,glycan array binding signal (z-score),GlcNAc(b1-3)Gal(b1-4)Glc,-0.274
same,glycan array binding signal (z-score),[14],-0.127
same,glycan array binding signal (z-score),[15],0.166
same,glycan array binding signal (z-score),[16],2.45
same,glycan array binding signal (z-score),[17],0.207
same,glycan array binding signal (z-score),[18],-0.104
same,glycan array binding signal (z-score),[19],1.17

# Reformatted: entries from further up
binder	measurement	setting	value
B1	glycan array binding signal (z-score)	[14]	-0.127
same	glycan array binding signal (z-score)	[18]	-0.104
